In patent US20230364266A1 one finds binding data, which are given here for 1 molecule.

Amino acid sequences for entries named in this document (tags omitted). Residues count along the entry.
UniProt P06127, residues 25-372: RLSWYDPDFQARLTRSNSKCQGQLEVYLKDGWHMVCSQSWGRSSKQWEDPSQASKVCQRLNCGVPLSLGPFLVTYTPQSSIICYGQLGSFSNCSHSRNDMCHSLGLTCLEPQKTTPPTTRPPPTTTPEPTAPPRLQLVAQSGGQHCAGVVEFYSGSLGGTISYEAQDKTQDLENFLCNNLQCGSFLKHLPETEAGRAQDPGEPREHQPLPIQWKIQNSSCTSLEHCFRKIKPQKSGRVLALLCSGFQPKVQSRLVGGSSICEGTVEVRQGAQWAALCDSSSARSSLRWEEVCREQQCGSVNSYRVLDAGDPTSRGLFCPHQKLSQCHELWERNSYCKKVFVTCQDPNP

In experiment [1] the target is labeled CD5 protein (Alexa647-conjugated CD5 protein) (UniProt P06127). Kind of experiment: flow cytometry; transfected HEK293T cells carrying the receptor stained with labeled CD5. In general terms: In flow cytometry, cells or beads pass a laser one at a time.
Experiment [2] has the same target. Kind of experiment: flow cytometry; retrotransposed HEK293 cells stained with Alexa647-conjugated CD5 protein, compared with negative control cells.

Results are given in words; binding and its absence hold for the method and conditions named. Some results given as binding are weak or reduced against the parent protein; the word gives no strength.

B1: CD5-FcR-PI3K chimeric receptor (ATAK receptor; CD5 binder chimeric antigen receptor), expressed from LINE-1-plasmid_CD5-intron-FCR-PI3K (receptor)
chain: EIQLVQSGGGLVKPGGSVRISCAASGYTFTNYGMNWVRQAPGKGLEWMGWINTHTGEPTYADSFKGRFTFSLDDSKNTAYLQINSLRAEDTAVYFCTRRGYDWYFDVWGQGTTVTVSSGGGGSGGGGSGGGGSDIQMTQSPSSLSASVGDRVTITCRASQDINSYLSWFQQKPGKAPKTLIYRANRLESGVPSRFSGSGSGTDYTLTISSLQYEDFGIYYCQQYDESPWTFGGGTKLEIKSGGGGSGALSNSIMYFSHFVPVFLPAKPTTTPAPRPPTPAPTIASQPLSLRPEACRPAAGGAVHTRGLDIYIWAPLAGTCGVLLLSLVITLYCRRLKIQVRKAAITSYEKSDGVYTGLSTRNQETYETLKHEKPPQGSGSYEDMRGILYAAPQLRSIRGQPGPNHEEDADSYENM
Consider B1, for which the binding entry in experiment [1] and in experiment [2] was “binds” throughout.
